Results as given in article PMC9281127.
These are yes or no findings as the source states them, for the method shown. In cells and extracts the contact can be indirect. Some results given as binding are weak or reduced against the parent protein; the word gives no strength. Tags and fused reporters may be left off the sequences shown.

Chains of the proteins cited; added tags and fusions are not shown. Residues count along the entry.
UniProt Q9NZQ7, residues 19-290: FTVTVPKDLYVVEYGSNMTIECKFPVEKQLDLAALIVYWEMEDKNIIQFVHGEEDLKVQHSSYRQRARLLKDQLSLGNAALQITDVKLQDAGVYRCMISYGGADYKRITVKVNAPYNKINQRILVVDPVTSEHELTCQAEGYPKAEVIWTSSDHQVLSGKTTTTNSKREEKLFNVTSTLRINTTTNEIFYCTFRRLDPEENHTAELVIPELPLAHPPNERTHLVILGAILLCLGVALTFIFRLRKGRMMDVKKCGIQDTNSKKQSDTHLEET

Molecular target: His-tagged PD-L1 (programmed death-ligand 1) (UniProt Q9NZQ7)
Assay: co-IP; plasmids for Flag-tagged ZG16 and His-tagged PD-L1 (wild type or mutants) co-transfected into SW480 or HCT116 cells; single vectors expressing each tag as negative controls

B1: Flag-tagged ZG16 (zymogen granule protein 16) (protein, UniProt O60844 17-167)
chain: NAIQARSSSYSGEYGGGGGKRFSHSGNQLDGPITALRVRVNTYYIVGLQVRYGKVWSDYVGGRNGDLEEIFLHPGESVIQVSGKYKWYLKKLVFVTDKGRYLSFGKDSGTSFNAVPLHPNTVLRFISGRSGSLIDAIGLHWDVYPSSCSRC
  binding: binds

B2: Flag-tagged ZG16-D151A (protein, UniProt O60844 17-167)
chain: NAIQARSSSYSGEYGGGGGKRFSHSGNQLDGPITALRVRVNTYYIVGLQVRYGKVWSDYVGGRNGDLEEIFLHPGESVIQVSGKYKWYLKKLVFVTDKGRYLSFGKDSGTSFNAVPLHPNTVLRFISGRSGSLIAAIGLHWDVYPSSCSRC
  binding: binds
